# Values of other authors in patent publication US7521065B2, “Compositions for the treatment and prevention of cancer” (priority 2001, dated 2009).
# For at least one compound, name, drawing or mass did not settle the structure.
# Tested on: human hepatoma and lung cancer cells
# Details: added to the growth media; cited from earlier work
structure (smiles),measurement,value
O=[Se](O)O [sodium selenite],effect on tumor cells,selective destruction
